Laboratory results published in patent US12378320B2, “Methods for treating pancreatitis” (Cold Spring Harbor Laboratory, priority 2018, dated 2025).

B1: Q9WU78 (protein, UniProt Q9WU78 1-869, looked up)
chain: MASFIWVQLKKTSEVDLAKPLVKFIQQTYPSGGEEQAQYCRAAEELSKLRRSALGRPLDKHEGALETLLRYYDQICSIEPKFPFSENQICLTFTWKDAFDKGSLFGGSVKLALASLGYEKSCVLFNCAALASQIAAEQNLDNDEGLKTAAKQYQFASGAFLHIKDTVLSALSREPTVDISPDTVGTLSLIMLAQAQEVFFLKATRDKMKDAIIAKLANQAADYFGDAFKQCQYKDTLPKEVFPTLAAKQCIMQANAEYHQSILAKQQKKFGEEIARLQHAAELIKNVASRYDEYVNVKDFSDKINRALTAAKKDNDFIYHDRVPDLKDLDPIGKATLVKPTPVNVPVSQKFTDLFEKMVPVSVQQSLAVFSQRKADLVNRSIAQMREATTLANGVLASLNLPAAIEDVSGDTVPQSILTKSTSVVEQGGIQTVDQLIKELPELLQRNREILEESLRLLDEEEATDNDLRAKFKDRWQRTPSNDLYKPLRAEGAKFRAVLDKAVQADGQVKERYQSHRDTIALLCKPEPELNAAIPSANPAKTMQGSEVVSVLKSLLSNLDEIKKERESLENDLKSVNFDMTSKFLTALAQDGVINEEALSVTELDRIYGGLTSKVQESLKKQEGLLKNIQVSHQEFSKMKQSNNEANLREEVLKNLATAYDNFVELVANLKEGTKFYNELTEILVRFQNKCSDIVFARKTERDELLKDLQQSIAREPSAPSIPPPAYQSSPAAGHAAAPPTPAPRTMPPAKPQPPARPPPPVLPANRVPPASAAAAPAGVGTASAAPPQTPGSAPPPQAQGPPYPTYPGYPGYCQMPMPMGYNPYAYGQYNMPYPPVYHQSPGQAPYPGPQQPTYPFPQPPQQSYYPQQ
modifications: full-length
B2: P59016 (protein, UniProt P59016 1-617, looked up)
chain: MAFPHRLDAPELPDFSMLKRLARDQLIYLLEQLPGKKDLFIEADLMSPLDRIANVSILKQHEVDKLYKVENKPALSANEQLCFLVRPRIKNMRYIASLVNADKLAGRIRKYKVILSPQKFYACEMVLEEEGVYGDVSCDEWAFSLLPLDVDLLSMELPEFFRDYFLEGDQRWINTVAQALHLLSTLYGPFPNCYGIGRCAKMSYDLWRKLEEEEDSETKGRKPEIGHIFLLDRDVDFVTALCSQVVYEGLVDDTFRIKCGSVDFGPEVTSSDKSLKVLLNAEDKVFSEIRNEHFSNVFGFLSQKARNLQAQYDRRRGMDIKQMKNFVSQELKGLKQEHRLLSLHIGACESIMKKKTKQDFQELIKTEHALLEGFNIRESTSYIEEHIDRQVSPIESLRLMCLLSITENGLIPKDYRSLKTQYLQSYGPEHLLTFSNLRRAGLLTEQAPGDTLTAVESKVSKLVTDKAAGKITDAFSSLAKRSNFRAISKKLNLIPRVDGEYDLKVPRDMAYVFSGAYVPLSCRIIEQVLDRRSWQGLDEVVRLLNCSEFAFTDTAKEDKASSESLRLILVVFLGGCTFSEISALRFLGREKGYRFIFLTTAVTNSARLMEAMSEVKS
modifications: full-length

Tested on: CA19-9 modified proteins
Test: CA19-9 IP/MS (iTRAQ) of organoid conditioned media after Dox treatment
Set-up: species or system mouse
Conditions: for 17 0H 5B1 (CA19-9 IP/MS relative abundance) / 17 0H NS19 (CA19-9 IP/MS relative abundance) / 17 8H 5B1 (CA19-9 IP/MS relative abundance) / 17 8H NS19 (CA19-9 IP/MS relative abundance): A217 organoid conditioned media; for 17 0H NS19 (CA19-9 IP/MS relative abundance) / 17 8H NS19 (CA19-9 IP/MS relative abundance) / 20 0H NS19 (CA19-9 IP/MS relative abundance) / 20 8H NS19 (CA19-9 IP/MS relative abundance): NS19-9; for 17 0H NS19 (CA19-9 IP/MS relative abundance): every printed value in this column is 1; for 20 0H 5B1 (CA19-9 IP/MS relative abundance) / 20 0H NS19 (CA19-9 IP/MS relative abundance) / 20 8H 5B1 (CA19-9 IP/MS relative abundance) / 20 8H NS19 (CA19-9 IP/MS relative abundance): A220 organoid conditioned media

Molecule	17 0H 5B1 (CA19-9 IP/MS relative abundance)	17 0H NS19 (CA19-9 IP/MS relative abundance)	17 8H 5B1 (CA19-9 IP/MS relative abundance)	17 8H NS19 (CA19-9 IP/MS relative abundance)	20 0H 5B1 (CA19-9 IP/MS relative abundance)	20 0H NS19 (CA19-9 IP/MS relative abundance)	20 8H 5B1 (CA19-9 IP/MS relative abundance)	20 8H NS19 (CA19-9 IP/MS relative abundance)
B1	1.766	1	1.966	1.143	1.201	3.037	1.952	0.475
B2	2.626	1	1.678	0.297	1.306	0.113	1.554	0.258
